Source: patent US20160046678A1 (ZYNGENIA, published 2016)
No constants are given. Whether binding was seen depends on the method and setting. Some binding calls cover weakened binding; strength is not graded here.

By UniProt entry, the sequences of proteins in these tests, tags left out. Residues count along the entry.
UniProt P08069, residues 31-932: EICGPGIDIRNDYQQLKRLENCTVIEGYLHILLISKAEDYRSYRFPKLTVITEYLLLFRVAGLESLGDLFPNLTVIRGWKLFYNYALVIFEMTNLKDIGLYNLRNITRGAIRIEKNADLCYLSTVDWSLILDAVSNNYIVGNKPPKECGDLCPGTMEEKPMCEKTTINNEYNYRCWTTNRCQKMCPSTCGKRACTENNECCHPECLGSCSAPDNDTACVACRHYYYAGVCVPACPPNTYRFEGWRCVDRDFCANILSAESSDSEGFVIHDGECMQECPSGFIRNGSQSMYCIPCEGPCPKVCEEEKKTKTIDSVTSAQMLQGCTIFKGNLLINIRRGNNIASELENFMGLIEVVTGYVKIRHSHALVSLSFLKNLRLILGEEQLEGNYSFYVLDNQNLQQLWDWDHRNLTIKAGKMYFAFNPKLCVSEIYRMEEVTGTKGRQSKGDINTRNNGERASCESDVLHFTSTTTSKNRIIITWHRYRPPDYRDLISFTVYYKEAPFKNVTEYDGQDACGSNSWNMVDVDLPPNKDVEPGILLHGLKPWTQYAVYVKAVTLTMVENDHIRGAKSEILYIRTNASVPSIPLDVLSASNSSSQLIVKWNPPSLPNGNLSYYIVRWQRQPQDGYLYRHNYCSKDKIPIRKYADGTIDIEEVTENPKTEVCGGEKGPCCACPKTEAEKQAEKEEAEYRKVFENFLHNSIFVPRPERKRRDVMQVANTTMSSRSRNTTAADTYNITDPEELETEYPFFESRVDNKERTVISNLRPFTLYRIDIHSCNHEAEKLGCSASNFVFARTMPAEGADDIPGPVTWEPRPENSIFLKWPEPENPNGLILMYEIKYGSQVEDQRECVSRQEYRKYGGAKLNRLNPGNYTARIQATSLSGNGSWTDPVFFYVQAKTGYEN

Target: IGF1R (UniProt P08069)
Assay: MRD identification, Example 48

Binder | binding
LVDICQRQELDFYSCLRSV [IGF1378] | binds
NLMECHALDFNQGMQCVQAY [IGF1422] | binds
AHALCYEFPVLCFYDV [IGF1421] | binds
AYDCRKHHMNFYECLTYL [IGF1373] | binds
LMELCAMDEDYYLWFCRAVE [IGF1360] | binds
VGQMCSMGLELDRMKCNPCY [IGF1376] | binds
ALAECIFEPTFEDCMWIL [IGF1987] | binds
FYNTCQFVGMEFYQCLDW [IGF1897] | binds
EPRLCHNYPDFYQCMSF [IGF1904] | binds
VISECEGLTFYECMAAL [IGF2006] | binds
LHSVCFEAPEWQQCLMQR [IGF1383] | binds
WEERCVDSDFYTQLCMLAW [IGF1990] | binds
VTEARTNDCNTTTFYHWFDCQLGTG [IGF1437] | binds
VISECEGLTFYQCMASL [IGF1994] | binds
REPLCIQDDPIMYLHCYFSV [IGF1996] | binds
DFYICLEHLLNVPGYHCVMTNG [IGF1408] | binds
SVLGCDDVGFYQCLEF [IGF1899] | binds
DGESYFYVCLEHLLNVPGYHCVMTNG [IGF1390] | binds
MAVGCTWVESCHWA [IGF1895] | binds

Binder | binding
AHALCYEFPVLCFYDV [IGF1406] | binds
PGVSADALCYEFPVLCFYDV [IGF1395] | binds
ESGDCPWLGHVSFEECLMWL [IGF1380] | binds
WDRWCVTEELPEQLCFLDG [IGF2011] | binds
LMDFCYVYPNICGCSN [IGF2002] | binds
WEEWCVDSDFYTQLCLLAW [IGF2010] | binds
AHALCYEFPVLCFYDVG [IGF1405] | binds
PGVSAHALCYEFPVLCFYDVG [IGF1386] | binds
VDMLCQVHGMTFYECLMLL [IGF2009] | binds
DALCYEFPVLCFYDVG [IGF1446] | binds
HALCYEFPVLCFYDV [IGF1396] | binds
WVDKCHQEMMEFHECLKYV [IGF1366] | binds
PSYHCSNMDYTFYECLMYL [IGF1348] | binds
SAVQCDLRLMCWQLRGPSRP [IGF1364] | binds
NPFWCSWGHQFDNECDSMV [IGF1355] | binds
VDMQCQVHGMTFYECLMRL [IGF1988] | binds
AYVCSNLNHCPALDFNQGMQCLQAYG [IGF1432] | binds
TGSDCYFYKHLYSLCVEVE [IGF1379] | binds

The remaining lines, values ahead:

binding | Binder
binds | CTATCLEDQGFYWNMCKLVF [IGF1371]
binds | NLMECHALDFYQGMQCLQPYRHP [IGF1413]
binds | TLPECLYAPTFEICVEYL [IGF1989]
binds | WASTCQQTFYSMNRCLSQW [IGF1356]
binds | DLMECHGLDFYKGMECLQAYG [IGF1414]
binds | DALCYEFPVLCFYDV [IGF1409]
binds | TSRRCEEYQDPLKEVCRYFL [IGF1401]
binds | REELCSVSPFDYHCRLFS [IGF1992]
binds | EAECRYPDTDLMWLCTYFSG [IGF1445]
binds | EDLGCLYLTFNQCMMWL [IGF2000]
binds | LSYTCQHFDLPWELCLSLH [IGF1993]
binds | NLMHCHGLDFYQGMQCLQAY [IGF1443]
binds | ASQTCIGMDFYSGLECLLG [IGF1905]
binds | ALPECQDLMFYECLFT [IGF1896]
binds | AGVSADALCYEFPVLCFYDVG [IGF1387]
binds | SNGSCHIVDFYGWFQCQTS [IGF1906]

binding | Binder
binds | MSYTCEDFDLPWELCLSLH [IGF1997]
binds | GEEVCWVQEPFYSTLCILAF [IGF1354]
binds | NLMECHALDFNQGMQCLQAY [IGF1411]
binds | SRFVCQHDWGFYECLSML [IGF2004]
binds | AARWCDMQQHSFYECLQV [IGF1900]
binds | AHALCYEFPVLCFYDVG [IGF1430]
binds | WSNVCQARNMAFQECLEYL [IGF1999]
binds | DDLDCKCLTFYECMAAL [IGF1998]
binds | EQSYCSQNDMFYDWFCALVS [IGF1349]
binds | GTVLCPEDMDFYECMTFI [IGF1991]
binds | ASHICHLIPTIEQCLFSL [IGF2005]
binds | WEEWCVDSDFYTQLCMLAW [IGF1995]
binds | PSEICITEGLGFYQCLLKL [IGF1365]
binds | FAHECSFHKLNFYQCLSFE [IGF2001]
binds | SYGTRWNPSFESNQFHMKLCVLMDGK [IGF1392]
binds | ARCECWESQFYWDLCSLAL [IGF1370]
